# Reference: paper PMC12557367 (Journal of Medicinal Chemistry, 2025)
# Numbered stars: 1 amine (or outer) side, 2 acyl side, 3 side chain; on linkers, the order of the positions; unused ones are H or OH. Bridge positions count the residues as written; N and C are the ends. Square brackets hold non-standard residues; d marks the D form. * marks the point of attachment. X2 = O=C(O)c1ccc(C(=O)*)cc1-c1c2ccc(=O)cc-2oc2cc(O)ccc12; TATA = O=C(CC[*:1])N1CN(C(=O)CC[*:2])CN(C(=O)CC[*:3])C1; 2Nal = N[C@@H](Cc1ccc2ccccc2c1)C(=O)O; Hyp = O=C(O)[C@@H]1C[C@@H](O)CN1
# Experiment: general procedure: Fmoc solid-phase peptide synthesis; Fmoc-Rink Amide resin (2-ClTrtCl resin for 8d); HATU/DIPEA
# Conditions: whole synthesis; for final HPLC purity: 230 nm; for isolated yield: on resin loading
Substance,final HPLC purity [%],isolated yield [%]
CSCC[C@@H]1NC(=O)[C@@H]2CSCCC(=O)N3CN(CN(C3)C(=O)CCSC[C@H](NC(=O)c3ccc(C(=O)O)c(-c4c5ccc(=O)cc-5oc5cc(O)ccc45)c3)C(=O)N3CCC[C@H]3C(=O)N[C@@H](Cc3ccc4ccccc4c3)C(=O)N[C@H](CC(=O)O)C(=O)N2)C(=O)CCSC[C@@H](C(N)=O)NC(=O)[C@H](Cc2c[nH]c3ccccc23)NC(=O)[C@@H]2C[C@@H](O)CN2C(=O)[C@@H]2CCCN2C(=O)[C@H]([C@@H](C)O)NC(=O)[C@H](CO)NC(=O)[C@H](Cc2c[nH]c3ccccc23)NC(=O)[C@H](CC(=O)O)NC(=O)[C@H](CCCNC(=N)N)NC1=O (X2-CP[2Nal][dD]CMRDWSTP[Hyp]WC-NH2; linker 1-5-15 via TATA; SMILES CSCC[C@@H]1NC(=O)[C@@H]2CSCCC(=O)N3CN(CN(C3)C(=O)CCSC[C@H](NC(=O)c3ccc(C(=O)O)c(-c4c5ccc(=O)cc-5oc5cc(O)ccc45)c3)C(=O)N3CCC[C@H]3C(=O)N[C@@H](Cc3ccc4ccccc4c3)C(=O)N[C@H](CC(=O)O)C(=O)N2)C(=O)CCSC[C@@H](C(N)=O)NC(=O)[C@H](Cc2c[nH]c3ccccc23)NC(=O)[C@@H]2C[C@@H](O)CN2C(=O)[C@@H]2CCCN2C(=O)[C@H]([C@@H](C)O)NC(=O)[C@H](CO)NC(=O)[C@H](Cc2c[nH]c3ccccc23)NC(=O)[C@H](CC(=O)O)NC(=O)[C@H](CCCNC(=N)N)NC1=O),>99,5
CSCC[C@@H]1NC(=O)[C@@H]2CSCCC(=O)N3CN(CN(C3)C(=O)CCSC[C@H](NC(=O)CN3CCN(CC(=O)O)CCN(CC(=O)O)CCN(CC(=O)O)CC3)C(=O)N3CCC[C@H]3C(=O)N[C@@H](Cc3cccc4ccccc34)C(=O)N[C@H](CC(=O)O)C(=O)N2)C(=O)CCSCC(C(N)=O)NC(=O)[C@H](Cc2c[nH]c3ccccc23)NC(=O)[C@@H]2C[C@@H](O)CN2C(=O)[C@@H]2CCCN2C(=O)[C@H]([C@@H](C)O)NC(=O)[C@H](CO)NC(=O)[C@H](Cc2c[nH]c3ccccc23)NC(=O)[C@H](CC(=O)O)NC(=O)[C@H](CCCCNC(=N)N)NC1=O,>99,12
